Test results: patent publication US20180362485A1, “N-HYDROXYFORMAMIDE COMPOUNDS AND COMPOSITIONS COMPRISING THEM FOR USE AS BMP l, TLL1 AND/OR TLL2 INHIBITORS” (GlaxoSmithKline Intellectual Property (No. 2) Limited, priority 2015, published 2018)
Structures can show the parent of a compound that is named as a salt. Some of these results come from one statement about several compounds together.

Assay: Human plasma stability assay
Settings: 37° C., within 24 hours

| SMILES | conversion to a BMP1, TLL1 and/or TLL2 inhibitor in human plasma |
| --- | --- |
| CCCCCCCCC(=O)ON(C=O)[C@H](CC)[C@@H](CCCCC)C(=O)NCNC(=O)c1ccc(-c2cc(OCC)cc(P(=O)(O)O)c2)o1 [Example 69, (3-ethoxy-5-(5-((((R)-2-((R)-1-(N-(nonanoyloxy) formamido)propyl)heptanamido)methyl)carbamoyl)furan-2-yl)phenyl)phosphonic acid] | convert to a BMP1, TLL1 and/or TLL2 inhibitor within 24 hours |
| CCCCC[C@@H](C(=O)NCNC(=O)c1ccc(-c2ccc(C(=O)N[C@@H](CC(=O)O)C(=O)O)c(OCC)c2)o1)[C@@H](CC)N(C=O)OC(=O)c1ccc2c(c1)OCCO2 [Example 83, (S)-2-(4-(5-((((R)-2-((R)-1-(N-((2,3-dihydrobenzo[b] [1,4]dioxine-6-carbonyl)oxy) formamido)propyl)heptanamido)methyl)carbamoyl)furan-2-yl)-2-ethoxybenzamido) succinic acid, 2Ammonia salt] | convert to a BMP1, TLL1 and/or TLL2 inhibitor within 24 hours |
| CCCCC[C@@H](C(=O)NCNC(=O)c1ccc(-c2ccc(C(=O)N[C@@H](CC(=O)O)C(=O)O)c(OCC)c2)o1)[C@@H](CC)N(C=O)OC(=O)c1ccc(OC)c(OC)c1 [Example 91, (S)-2-(4-(5-((((R)-2-((R)-1-(N-((3,4-dimethoxybenzoyl)oxy)formamido)propyl)heptanamido)methyl)carbamoyl)furan-2-yl)-2-ethoxybenzamido) succinic acid] | convert to a BMP1, TLL1 and/or TLL2 inhibitor within 24 hours |
| CCCCC[C@@H](C(=O)NCNC(=O)c1ccc(-c2cc(OCC)cc(P(=O)(O)O)c2)o1)[C@@H](CC)N(C=O)OC(=O)c1ccc(F)cc1C(C)C [Example 68, (3-ethoxy-5-(5-((((R)-2-((R)-1-(N-((4-fluoro-2-isopropylbenzoyl)oxy) formamido)propyl)heptanamido)methyl)carbamoyl)furan-2-yl)phenyl)phosphonic acid] | convert to a BMP1, TLL1 and/or TLL2 inhibitor within 24 hours |
| CCCCC[C@@H](C(=O)NCNC(=O)c1ccc(-c2ccc(C(=O)N[C@@H](CC(=O)O)C(=O)O)c(OCC)c2)o1)[C@@H](CC)N(C=O)OC(=O)c1ccc([N+](=O)[O-])cc1C [Example 500, (S)-2-(2-ethoxy-4-(5-((((R)-2-((R)-1-(N-((2-methyl-4-nitrobenzoyl)oxy)formamido)propyl)heptanamido)methyl)carbamoyl)furan-2-yl)benzamido)succinic Acid] | convert to a BMP1, TLL1 and/or TLL2 inhibitor within 24 hours |
| CCCCC[C@@H](C(=O)NCNC(=O)c1ccc(-c2ccc(C(=O)N[C@@H](CC(=O)O)C(=O)O)c(OCC)c2)o1)[C@@H](CC)N(C=O)OC(=O)c1ccc(F)cc1C [Example 117, (S)-2-(2-ethoxy-4-(5-((((R)-2-((R)-1-(N-((4-fluoro-2-methylbenzoyl)oxy) formamido)propyl)heptanamido)methyl)carbamoyl)furan-2-yl)benzamido) succinic acid] | convert to a BMP1, TLL1 and/or TLL2 inhibitor within 24 hours |
| CCCCC[C@@H](C(=O)NCNC(=O)c1ccc(-c2ccc(C(=O)N[C@@H](CC(=O)O)C(=O)OCOC(=O)C(C)C)c(OCC)c2)o1)[C@@H](CC)N(O)C=O [Example 106, (S)-3-(2-ethoxy-4-(5-((((R)-2-((R)-1-(N-hydroxyformamido)propyl)heptanamido)methyl)carbamoyl)furan-2-yl)benzamido)-4-((isobutyryloxy)methoxy)-4-oxobutanoic acid] | convert to a BMP1, TLL1 and/or TLL2 inhibitor within 24 hours |
| CCCCC[C@@H](C(=O)NCNC(=O)c1ccc(-c2ccc(C(=O)N[C@@H](CC(=O)O)C(=O)O)c(OCC)c2)o1)[C@@H](CC)N(C=O)OC(=O)c1ccc(OC)cc1 [Example 51, (S)-2-(2-ethoxy-4-(5-((((R)-2-((R)-1-(N-((4-methoxybenzoyl)oxy)formamido)propyl)heptanamido)methyl)carbamoyl)furan-2-yl)benzamido)succinic Acid] | convert to a BMP1, TLL1 and/or TLL2 inhibitor within 24 hours |
| CCCCC[C@@H](C(=O)NCNC(=O)c1ccc(-c2cc(OCC)cc(P(=O)(O)O)c2)o1)[C@@H](CC)N(C=O)OC(=O)c1ccc(OC)cc1C [Example 88, (3-ethoxy-5-(5-((((R)-2-((R)-1-(N-((4-methoxy-2-methylbenzoyl)oxy) formamido)propyl)heptanamido)methyl)carbamoyl)furan-2-yl)phenyl)phosphonic acid, 2Ammonia salt] | convert to a BMP1, TLL1 and/or TLL2 inhibitor within 24 hours |
| CCCCC[C@@H](C(=O)NCNC(=O)c1ccc(-c2ccc(C(=O)N[C@@H](CC(=O)O)C(=O)O)c(OCC)c2)o1)[C@@H](CC)N(C=O)OC(=O)C(CC)CC [Example 48, (S)-2-(2-ethoxy-4-(5-((((R)-2-((R)-1-(N-((2-ethylbutanoyl)oxy) formamido)propyl)heptanamido)methyl)carbamoyl)furan-2-yl)benzamido) succinic acid] | convert to a BMP1, TLL1 and/or TLL2 inhibitor within 24 hours |
| CCCCC[C@@H](C(=O)NCNC(=O)c1ccc(-c2ccc(C(=O)N[C@@H](CC(=O)O)C(=O)O)c(OCC)c2)o1)[C@@H](CC)N(C=O)OCOP(=O)(O)O [Example 80, (S)-2-(2-ethoxy-4-(5-((((R)-2-((R)-1-(N-((phosphonooxy)methoxy)formamido)propyl)heptanamido)methyl)carbamoyl)furan-2-yl)benzamido)succinic Acid, Ammonia Salt] | convert to a BMP1, TLL1 and/or TLL2 inhibitor within 24 hours |
| CCCCC[C@@H](C(=O)NCNC(=O)c1ccc(-c2cc(OCC)cc(P(=O)(OCOC(C)=O)OCOC(C)=O)c2)o1)[C@@H](CC)N(O)C=O [Example 115, (((3-ethoxy-5-(5-((((R)-2-((R)-1-(N-hydroxyformamido)propyl)heptanamido)methyl)carbamoyl)furan-2-yl)phenyl)phosphoryl)bis(oxy))bis (methylene) diacetate] | convert to a BMP1, TLL1 and/or TLL2 inhibitor within 24 hours |
| CCCCC[C@@H](C(=O)NCNC(=O)c1ccc(-c2ccc(C(=O)NCP(=O)(O)O)c(OCC)c2)o1)[C@@H](CC)N(C=O)OC(=O)c1ccc(OC)cc1C [Example 133, ((2-ethoxy-4-(5-((((R)-2-((R)-1-(N-((4-methoxy-2-methylbenzoyl)oxy) formamido)propyl)heptanamido)methyl)carbamoyl)furan-2-yl)benzamido)methyl) phosphonic acid] | convert to a BMP1, TLL1 and/or TLL2 inhibitor within 24 hours |
| CCCCC[C@@H](C(=O)NCNC(=O)c1ccc(-c2ccc(C(=O)N[C@@H](CC(=O)O)C(=O)O)c(OCC(=O)O)c2)o1)[C@@H](CC)N(C=O)OC(=O)c1c(C)ccnc1C [Example 26, (S)-2-(2-(carboxymethoxy)-4-(5-((((R)-2-((R)-1-(N-((2,4-dimethylnicotinoyl)oxy)formamido)propyl)heptanamido)methyl)carbamoyl)furan-2-yl)benzamido) succinic acid] | convert to a BMP1, TLL1 and/or TLL2 inhibitor within 24 hours |
| CCCCC[C@@H](C(=O)NCNC(=O)c1ccc(-c2ccc(C(=O)N[C@@H](CC(=O)O)C(=O)O)c(OCC(=O)O)c2)o1)[C@@H](CC)N(C=O)OC(=O)NC(C)C [Example 30, (S)-2-(2-(carboxymethoxy)-4-(5-(((4R,5R)-5-ethyl-6-formyl-10-methyl-3,8-dioxo-4-pentyl-7-oxa-2,6,9-triazaundecyl)carbamoyl)furan-2-yl)benzamido) succinic acid] | convert to a BMP1, TLL1 and/or TLL2 inhibitor within 24 hours |
| CCCCC[C@@H](C(=O)NCNC(=O)c1ccc(-c2cc(OCC)cc(P(=O)(O)O)c2)o1)[C@@H](CC)N(C=O)OC(=O)c1ccc(N2CCOCC2)cc1C [Example 97, (3-ethoxy-5-(5-((((R)-2-((R)-1-(N-((2-methyl-4-morpholinobenzoyl)oxy)formamido)propyl)heptanamido)methyl)carbamoyl)furan-2-yl)phenyl)phosphonic acid, 2Ammonia salt] | convert to a BMP1, TLL1 and/or TLL2 inhibitor within 24 hours |
| CCCCC[C@@H](C(=O)NCNC(=O)c1ccc(-c2ccc(C(=O)N[C@@H](CC(=O)O)C(=O)O)c(OCC)c2)o1)[C@@H](CC)N(C=O)OC(=O)c1ccc(N2CCCC2=O)cc1 [Example 78, (S)-2-(2-ethoxy-4-(5-((((R)-2-((R)-1-(N-((4-(2-oxopyrrolidin-1-yl)benzoyl)oxy)formamido)propyl)heptanamido)methyl)carbamoyl)furan-2-yl)benzamido)succinic Acid, 2Ammonia Salt] | convert to a BMP1, TLL1 and/or TLL2 inhibitor within 24 hours |
| CCCCC[C@@H](C(=O)NCNC(=O)c1ccc(-c2ccc(C(=O)N[C@@H](CC(=O)O)C(=O)O)c(OCC(=O)O)c2)o1)[C@@H](CC)N(C=O)OC(=O)c1ccc(OC)cc1C [Example 39, (S)-2-(2-(carboxymethoxy)-4-(5-((((R)-2-((R)-1-(N-((4-methoxy-2-methylbenzoyl)oxy) formamido)propyl)heptanamido)methyl)carbamoyl)furan-2-yl)benzamido) succinic acid, 3 Ammonia salt] | convert to a BMP1, TLL1 and/or TLL2 inhibitor within 24 hours |
| CCCCC[C@@H](C(=O)NCNC(=O)c1ccc(-c2ccc(C(=O)N[C@@H](CC(=O)O)C(=O)O)c(OCC)c2)o1)[C@@H](CC)N(C=O)OC(=O)c1ccc(OC)cc1C(C)C [Example 66, (S)-2-(2-ethoxy-4-(5-((((R)-2-((R)-1-(N-((2-isopropyl-4-methoxybenzoyl)oxy) formamido)propyl)heptanamido)methyl)carbamoyl)furan-2-yl)benzamido) succinic acid] | convert to a BMP1, TLL1 and/or TLL2 inhibitor within 24 hours |
